The results in this text go back to paper PMC11884936, “MDC1 mediates Pellino recruitment to sites of DNA double-strand breaks” (Life Science Alliance, 2025).

By UniProt entry, the sequences of proteins in these tests, tags left out.
UniProt Q14676: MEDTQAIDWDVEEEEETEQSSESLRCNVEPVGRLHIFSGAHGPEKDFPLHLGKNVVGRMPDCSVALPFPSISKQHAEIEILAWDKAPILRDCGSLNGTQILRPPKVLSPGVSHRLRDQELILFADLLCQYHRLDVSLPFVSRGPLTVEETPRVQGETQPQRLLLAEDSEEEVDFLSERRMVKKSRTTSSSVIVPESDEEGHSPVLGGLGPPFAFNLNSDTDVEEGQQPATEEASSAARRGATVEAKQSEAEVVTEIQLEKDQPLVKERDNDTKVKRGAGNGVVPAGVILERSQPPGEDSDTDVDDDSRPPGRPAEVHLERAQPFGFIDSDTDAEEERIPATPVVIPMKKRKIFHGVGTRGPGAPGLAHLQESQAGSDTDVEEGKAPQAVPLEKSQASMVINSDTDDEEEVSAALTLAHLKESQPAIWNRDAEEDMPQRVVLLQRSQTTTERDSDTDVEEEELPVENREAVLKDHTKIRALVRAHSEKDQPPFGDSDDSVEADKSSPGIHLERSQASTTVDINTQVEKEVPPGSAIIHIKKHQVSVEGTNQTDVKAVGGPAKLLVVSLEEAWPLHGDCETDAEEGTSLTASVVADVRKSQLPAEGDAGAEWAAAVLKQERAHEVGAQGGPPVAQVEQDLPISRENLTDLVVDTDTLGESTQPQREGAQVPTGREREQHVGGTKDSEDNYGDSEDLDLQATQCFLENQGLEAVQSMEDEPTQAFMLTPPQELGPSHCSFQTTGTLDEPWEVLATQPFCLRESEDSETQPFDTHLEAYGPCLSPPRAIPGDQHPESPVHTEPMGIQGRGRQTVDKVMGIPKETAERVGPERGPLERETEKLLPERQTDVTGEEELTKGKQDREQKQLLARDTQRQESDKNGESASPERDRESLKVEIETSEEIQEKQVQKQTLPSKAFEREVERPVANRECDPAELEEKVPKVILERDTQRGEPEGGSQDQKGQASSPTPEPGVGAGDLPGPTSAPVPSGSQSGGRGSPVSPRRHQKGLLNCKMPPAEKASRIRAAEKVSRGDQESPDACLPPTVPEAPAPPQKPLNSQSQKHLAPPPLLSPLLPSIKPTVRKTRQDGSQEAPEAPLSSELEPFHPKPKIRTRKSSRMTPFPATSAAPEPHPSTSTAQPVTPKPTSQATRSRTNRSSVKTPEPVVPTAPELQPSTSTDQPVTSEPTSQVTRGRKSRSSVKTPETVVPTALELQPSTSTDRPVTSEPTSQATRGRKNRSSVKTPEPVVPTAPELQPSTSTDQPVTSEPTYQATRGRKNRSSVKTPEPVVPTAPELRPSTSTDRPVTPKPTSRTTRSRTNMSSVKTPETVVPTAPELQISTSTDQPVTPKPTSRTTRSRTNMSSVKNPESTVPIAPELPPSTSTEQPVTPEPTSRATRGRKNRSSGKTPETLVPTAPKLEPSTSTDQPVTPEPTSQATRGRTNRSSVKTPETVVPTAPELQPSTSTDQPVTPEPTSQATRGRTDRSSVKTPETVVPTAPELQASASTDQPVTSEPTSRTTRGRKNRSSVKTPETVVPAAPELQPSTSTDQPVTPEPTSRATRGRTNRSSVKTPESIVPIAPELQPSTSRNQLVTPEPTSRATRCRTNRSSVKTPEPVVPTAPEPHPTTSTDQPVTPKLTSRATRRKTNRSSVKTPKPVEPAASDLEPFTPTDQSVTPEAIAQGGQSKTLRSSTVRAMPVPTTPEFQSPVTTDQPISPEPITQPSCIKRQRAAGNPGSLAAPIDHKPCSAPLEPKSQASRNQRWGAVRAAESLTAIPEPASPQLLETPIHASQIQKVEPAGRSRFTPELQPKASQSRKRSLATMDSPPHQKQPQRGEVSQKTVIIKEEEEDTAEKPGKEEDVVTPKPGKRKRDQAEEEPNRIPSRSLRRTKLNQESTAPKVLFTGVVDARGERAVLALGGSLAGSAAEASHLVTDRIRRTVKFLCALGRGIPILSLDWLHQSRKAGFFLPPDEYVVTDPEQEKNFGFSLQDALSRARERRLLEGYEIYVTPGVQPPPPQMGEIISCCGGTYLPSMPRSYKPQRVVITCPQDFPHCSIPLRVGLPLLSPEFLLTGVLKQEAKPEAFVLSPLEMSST

The experiment concerns the target T1, H2AX-[p]S139 biotinylated phosphopeptide (Biotin-SGS-…[p]SQEY-OH).
T1 sequence (peptide, biotin on the N-terminus; phosphoserine at S139; free C-terminus (-OH)): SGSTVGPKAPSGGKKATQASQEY
In words: pull-down; biotinylated peptide on streptavidin Dynabeads, incubated with HeLa nuclear extract 4 h at 4°C; SDS-PAGE and Western blot; only the target purified. For orientation: In western blotting, separated proteins are transferred to a membrane and probed.

No constants are given. Whether binding was seen depends on the method and setting. Binding seen in cells or lysates may run through a third protein. Some results given as binding are weak or reduced against the parent protein; the word gives no strength.

On to “MDC1 (endogenous, HeLa nuclear extract) (from UniProt Q14676 1-2089)”, for which the binding result is recorded as “binds”.
